In the test the target is T1, Kita-Kyushu lung cancer antigen-1 (KK-LC-1) (human (endogenous in MDA-MB-231 and MDA-MB-468)) (UniProt Q5H943).
T1 sequence: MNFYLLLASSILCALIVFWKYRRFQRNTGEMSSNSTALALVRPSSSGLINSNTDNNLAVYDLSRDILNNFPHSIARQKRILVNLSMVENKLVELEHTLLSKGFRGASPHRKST
The experiment in a line: affinity purification with mass spectrometry; immunoprecipitation from MDA-MB-231 cells with anti-KK-LC-1 antibody and anti-IgG control; whole gel lanes analysed by mass spectrometry; proteins also found with anti-IgG removed; hits compared with known Hippo pathway components.

Sequences of proteins named here, by UniProt entry; tags and fusion partners are left off. Residues count along the entry.
UniProt Q14517, residues 22-4588: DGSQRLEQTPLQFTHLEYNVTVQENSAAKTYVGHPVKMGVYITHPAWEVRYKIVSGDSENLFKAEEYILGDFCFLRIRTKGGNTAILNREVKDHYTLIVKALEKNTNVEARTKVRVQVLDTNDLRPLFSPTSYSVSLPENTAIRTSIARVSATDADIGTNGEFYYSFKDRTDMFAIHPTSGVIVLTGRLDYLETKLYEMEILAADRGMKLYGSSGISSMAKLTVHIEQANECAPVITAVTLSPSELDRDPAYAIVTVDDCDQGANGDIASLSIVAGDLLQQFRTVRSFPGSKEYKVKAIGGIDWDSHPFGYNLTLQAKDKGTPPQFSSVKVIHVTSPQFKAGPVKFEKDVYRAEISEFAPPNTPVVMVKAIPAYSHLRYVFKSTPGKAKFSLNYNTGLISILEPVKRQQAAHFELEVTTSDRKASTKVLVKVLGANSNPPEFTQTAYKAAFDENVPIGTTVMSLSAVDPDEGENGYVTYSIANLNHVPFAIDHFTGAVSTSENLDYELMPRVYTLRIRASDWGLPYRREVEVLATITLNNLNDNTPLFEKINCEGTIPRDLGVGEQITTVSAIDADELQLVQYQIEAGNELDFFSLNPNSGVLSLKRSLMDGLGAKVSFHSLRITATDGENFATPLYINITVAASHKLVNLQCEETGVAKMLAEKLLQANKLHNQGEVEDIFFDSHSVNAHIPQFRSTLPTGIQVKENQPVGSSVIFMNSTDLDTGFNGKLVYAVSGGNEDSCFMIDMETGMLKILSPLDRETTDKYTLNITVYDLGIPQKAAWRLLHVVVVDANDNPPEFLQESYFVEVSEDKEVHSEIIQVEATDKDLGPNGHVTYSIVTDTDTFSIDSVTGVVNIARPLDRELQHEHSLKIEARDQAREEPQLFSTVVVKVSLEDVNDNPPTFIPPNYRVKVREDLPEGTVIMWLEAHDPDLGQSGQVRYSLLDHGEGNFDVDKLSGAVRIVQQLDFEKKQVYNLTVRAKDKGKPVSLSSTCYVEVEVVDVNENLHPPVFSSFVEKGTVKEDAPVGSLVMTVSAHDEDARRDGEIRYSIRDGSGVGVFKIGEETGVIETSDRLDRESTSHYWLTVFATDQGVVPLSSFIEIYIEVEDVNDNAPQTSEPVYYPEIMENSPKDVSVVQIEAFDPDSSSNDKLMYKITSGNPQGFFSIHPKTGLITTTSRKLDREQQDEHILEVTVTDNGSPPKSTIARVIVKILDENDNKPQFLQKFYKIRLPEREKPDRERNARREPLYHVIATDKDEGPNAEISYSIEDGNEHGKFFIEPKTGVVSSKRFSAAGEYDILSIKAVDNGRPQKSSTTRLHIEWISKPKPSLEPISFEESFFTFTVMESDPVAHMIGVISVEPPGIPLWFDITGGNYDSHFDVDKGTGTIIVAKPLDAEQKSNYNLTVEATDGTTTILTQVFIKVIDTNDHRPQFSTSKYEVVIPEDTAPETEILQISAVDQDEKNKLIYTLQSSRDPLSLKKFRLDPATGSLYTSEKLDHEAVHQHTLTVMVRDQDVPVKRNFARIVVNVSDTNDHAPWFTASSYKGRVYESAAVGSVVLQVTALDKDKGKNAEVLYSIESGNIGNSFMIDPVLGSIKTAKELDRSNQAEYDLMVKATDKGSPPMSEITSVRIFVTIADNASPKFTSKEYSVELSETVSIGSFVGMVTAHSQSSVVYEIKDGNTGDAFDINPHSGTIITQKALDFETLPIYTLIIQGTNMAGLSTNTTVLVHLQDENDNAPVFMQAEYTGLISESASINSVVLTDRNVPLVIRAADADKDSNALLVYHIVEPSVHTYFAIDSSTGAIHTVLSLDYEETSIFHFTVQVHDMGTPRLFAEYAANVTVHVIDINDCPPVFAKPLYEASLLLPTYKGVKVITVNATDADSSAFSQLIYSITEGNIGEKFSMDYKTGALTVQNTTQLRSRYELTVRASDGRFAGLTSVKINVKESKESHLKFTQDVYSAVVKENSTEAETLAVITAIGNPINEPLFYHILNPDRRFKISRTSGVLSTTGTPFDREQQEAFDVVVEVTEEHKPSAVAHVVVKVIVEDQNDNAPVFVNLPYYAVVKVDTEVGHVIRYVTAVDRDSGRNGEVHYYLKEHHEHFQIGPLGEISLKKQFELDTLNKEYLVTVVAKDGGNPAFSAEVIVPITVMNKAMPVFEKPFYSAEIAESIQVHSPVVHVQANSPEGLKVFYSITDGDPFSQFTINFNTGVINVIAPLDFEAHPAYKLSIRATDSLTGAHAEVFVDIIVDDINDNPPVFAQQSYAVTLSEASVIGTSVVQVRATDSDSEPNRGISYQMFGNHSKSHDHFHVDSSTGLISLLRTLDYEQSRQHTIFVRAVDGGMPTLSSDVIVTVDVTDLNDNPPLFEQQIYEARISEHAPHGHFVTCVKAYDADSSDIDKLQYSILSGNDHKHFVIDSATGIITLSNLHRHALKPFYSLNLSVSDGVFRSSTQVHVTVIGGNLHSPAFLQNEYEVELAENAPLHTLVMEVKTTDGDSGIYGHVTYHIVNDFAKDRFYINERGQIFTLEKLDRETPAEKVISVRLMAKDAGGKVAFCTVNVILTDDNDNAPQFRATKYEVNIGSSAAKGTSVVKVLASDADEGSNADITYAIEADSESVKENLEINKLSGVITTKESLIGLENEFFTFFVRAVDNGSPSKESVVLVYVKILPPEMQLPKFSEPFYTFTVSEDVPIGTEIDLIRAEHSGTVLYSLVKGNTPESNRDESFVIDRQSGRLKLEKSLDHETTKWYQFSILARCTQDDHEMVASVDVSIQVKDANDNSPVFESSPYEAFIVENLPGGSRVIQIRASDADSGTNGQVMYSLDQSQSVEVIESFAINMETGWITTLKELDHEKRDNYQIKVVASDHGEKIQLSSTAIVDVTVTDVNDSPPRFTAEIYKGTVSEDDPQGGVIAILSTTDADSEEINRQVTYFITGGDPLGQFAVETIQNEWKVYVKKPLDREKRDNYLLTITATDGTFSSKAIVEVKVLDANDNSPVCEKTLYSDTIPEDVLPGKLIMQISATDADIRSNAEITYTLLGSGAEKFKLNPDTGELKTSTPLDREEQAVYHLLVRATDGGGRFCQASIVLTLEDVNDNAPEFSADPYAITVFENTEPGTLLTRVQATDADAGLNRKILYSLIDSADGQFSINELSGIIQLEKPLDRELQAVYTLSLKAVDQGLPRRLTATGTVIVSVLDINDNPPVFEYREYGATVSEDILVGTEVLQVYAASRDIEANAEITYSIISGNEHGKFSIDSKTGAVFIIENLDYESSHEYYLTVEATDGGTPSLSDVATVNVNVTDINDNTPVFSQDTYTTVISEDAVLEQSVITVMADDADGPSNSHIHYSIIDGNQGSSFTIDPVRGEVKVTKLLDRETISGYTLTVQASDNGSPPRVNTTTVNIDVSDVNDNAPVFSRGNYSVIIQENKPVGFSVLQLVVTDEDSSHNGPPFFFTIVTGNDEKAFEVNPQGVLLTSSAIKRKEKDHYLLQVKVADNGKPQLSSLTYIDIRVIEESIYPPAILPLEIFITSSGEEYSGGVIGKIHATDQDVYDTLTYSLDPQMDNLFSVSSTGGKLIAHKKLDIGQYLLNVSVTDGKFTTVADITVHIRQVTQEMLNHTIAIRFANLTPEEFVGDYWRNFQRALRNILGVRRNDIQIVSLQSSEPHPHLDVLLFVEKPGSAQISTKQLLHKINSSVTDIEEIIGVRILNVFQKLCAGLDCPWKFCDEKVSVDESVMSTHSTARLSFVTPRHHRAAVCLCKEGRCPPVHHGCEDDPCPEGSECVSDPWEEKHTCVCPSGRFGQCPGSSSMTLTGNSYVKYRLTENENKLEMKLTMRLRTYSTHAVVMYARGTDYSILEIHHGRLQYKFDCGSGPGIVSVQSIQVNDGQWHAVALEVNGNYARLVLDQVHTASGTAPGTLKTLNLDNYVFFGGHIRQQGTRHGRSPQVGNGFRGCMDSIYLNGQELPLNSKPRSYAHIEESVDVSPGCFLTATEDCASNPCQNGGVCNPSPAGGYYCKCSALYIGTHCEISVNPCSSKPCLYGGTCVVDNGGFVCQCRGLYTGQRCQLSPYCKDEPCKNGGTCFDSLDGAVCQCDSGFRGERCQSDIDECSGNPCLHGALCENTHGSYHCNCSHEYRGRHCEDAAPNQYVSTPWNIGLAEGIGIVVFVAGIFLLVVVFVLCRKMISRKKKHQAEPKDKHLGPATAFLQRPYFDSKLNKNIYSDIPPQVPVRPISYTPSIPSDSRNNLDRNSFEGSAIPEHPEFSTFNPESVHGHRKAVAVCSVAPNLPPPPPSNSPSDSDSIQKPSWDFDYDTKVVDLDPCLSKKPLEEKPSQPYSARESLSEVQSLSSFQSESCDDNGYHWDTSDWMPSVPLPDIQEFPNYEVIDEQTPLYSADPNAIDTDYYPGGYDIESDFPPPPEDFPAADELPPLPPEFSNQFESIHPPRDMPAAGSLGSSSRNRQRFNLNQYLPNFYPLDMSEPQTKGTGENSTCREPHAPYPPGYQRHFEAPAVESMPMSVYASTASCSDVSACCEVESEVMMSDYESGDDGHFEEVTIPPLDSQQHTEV

Results are given in words; binding and its absence hold for the method and conditions named. Binding seen in cells or lysates may run through a third protein. These calls come from enrichment with a bait or labelling near it, and not all partners need be listed.

As to FAT1 (from UniProt Q14517 22-4588), the binding result is “binds”.

For the origin of these results see article PMC10163259, “KK-LC-1 as a therapeutic target to eliminate ALDH^+ stem cells in triple negative breast cancer” (Nature Communications, 2023).
